Results are given in words; binding and its absence hold for the method and conditions named. Binding seen in cells or lysates may run through a third protein. Some entries that bind do so weakly or less than the wild type.
Target: T1, Flag-tagged Cavβ3-subunit (rat, UniProt P54287 1-484)
T1 construct: whole, on cells; Flag-tagged in co-immunoprecipitation, pull-down and immunofluorescence; also called Flag-Cavβ3; N-Flag Cavβ3-subunits
Test: co-precipitation

B1: isolated BARP domain II (peptide)
chain: RSPRAWPRRPRRDYSIDEKTDALFHEFLRHDPHFDDAPR
- binding: binds

From patent publication US20100272737A1 (AGENCY FOR SCIENCE TECHNOLOGY AND RESEARCH, published 2010)
